# The other results are listed elsewhere or left out. Most values lie at the level of the controls, where differences are scatter.
# By UniProt entry, the sequences of proteins in these tests, tags left out. Where a name states a change or a piece, a line headed by the entry shows the natural chain unless it says otherwise.
# UniProt P50608: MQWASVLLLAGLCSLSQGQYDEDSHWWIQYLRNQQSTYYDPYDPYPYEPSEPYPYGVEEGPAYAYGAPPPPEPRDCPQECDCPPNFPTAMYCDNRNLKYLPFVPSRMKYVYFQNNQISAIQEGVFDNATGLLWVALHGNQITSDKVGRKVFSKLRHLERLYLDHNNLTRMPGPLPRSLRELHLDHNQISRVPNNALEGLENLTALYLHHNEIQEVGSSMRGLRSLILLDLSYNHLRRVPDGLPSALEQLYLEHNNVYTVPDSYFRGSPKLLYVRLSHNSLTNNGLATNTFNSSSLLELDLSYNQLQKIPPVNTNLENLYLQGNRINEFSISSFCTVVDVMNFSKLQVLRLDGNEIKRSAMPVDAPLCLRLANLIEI
# UniProt P42703: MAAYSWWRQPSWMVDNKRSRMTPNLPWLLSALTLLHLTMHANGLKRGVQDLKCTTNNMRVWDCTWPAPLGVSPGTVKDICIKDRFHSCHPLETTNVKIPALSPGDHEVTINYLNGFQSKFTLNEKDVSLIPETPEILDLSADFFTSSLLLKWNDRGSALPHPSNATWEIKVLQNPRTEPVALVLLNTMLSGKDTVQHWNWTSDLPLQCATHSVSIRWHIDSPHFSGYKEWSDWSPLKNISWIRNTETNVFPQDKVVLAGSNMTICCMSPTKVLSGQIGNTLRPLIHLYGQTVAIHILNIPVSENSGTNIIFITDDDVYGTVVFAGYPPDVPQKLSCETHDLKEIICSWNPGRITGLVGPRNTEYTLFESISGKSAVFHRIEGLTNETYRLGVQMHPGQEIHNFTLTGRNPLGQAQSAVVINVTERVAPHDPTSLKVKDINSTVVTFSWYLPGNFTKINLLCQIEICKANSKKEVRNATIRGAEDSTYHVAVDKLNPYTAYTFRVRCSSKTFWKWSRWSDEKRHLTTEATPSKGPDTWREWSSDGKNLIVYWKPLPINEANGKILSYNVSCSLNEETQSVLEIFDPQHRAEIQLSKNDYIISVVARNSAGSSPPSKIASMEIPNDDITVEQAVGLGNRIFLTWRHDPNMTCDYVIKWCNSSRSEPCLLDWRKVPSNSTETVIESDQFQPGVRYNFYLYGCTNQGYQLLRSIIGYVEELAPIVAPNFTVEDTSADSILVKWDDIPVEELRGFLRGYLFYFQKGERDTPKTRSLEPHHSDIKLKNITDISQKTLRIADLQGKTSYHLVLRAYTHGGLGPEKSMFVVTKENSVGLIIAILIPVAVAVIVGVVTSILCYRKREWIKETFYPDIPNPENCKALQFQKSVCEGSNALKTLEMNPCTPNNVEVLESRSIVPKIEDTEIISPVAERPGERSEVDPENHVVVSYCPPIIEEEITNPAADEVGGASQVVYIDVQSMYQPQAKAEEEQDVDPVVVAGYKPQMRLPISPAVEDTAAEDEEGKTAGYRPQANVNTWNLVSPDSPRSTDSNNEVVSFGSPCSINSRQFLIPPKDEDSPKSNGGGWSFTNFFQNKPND
# UniProt P41230: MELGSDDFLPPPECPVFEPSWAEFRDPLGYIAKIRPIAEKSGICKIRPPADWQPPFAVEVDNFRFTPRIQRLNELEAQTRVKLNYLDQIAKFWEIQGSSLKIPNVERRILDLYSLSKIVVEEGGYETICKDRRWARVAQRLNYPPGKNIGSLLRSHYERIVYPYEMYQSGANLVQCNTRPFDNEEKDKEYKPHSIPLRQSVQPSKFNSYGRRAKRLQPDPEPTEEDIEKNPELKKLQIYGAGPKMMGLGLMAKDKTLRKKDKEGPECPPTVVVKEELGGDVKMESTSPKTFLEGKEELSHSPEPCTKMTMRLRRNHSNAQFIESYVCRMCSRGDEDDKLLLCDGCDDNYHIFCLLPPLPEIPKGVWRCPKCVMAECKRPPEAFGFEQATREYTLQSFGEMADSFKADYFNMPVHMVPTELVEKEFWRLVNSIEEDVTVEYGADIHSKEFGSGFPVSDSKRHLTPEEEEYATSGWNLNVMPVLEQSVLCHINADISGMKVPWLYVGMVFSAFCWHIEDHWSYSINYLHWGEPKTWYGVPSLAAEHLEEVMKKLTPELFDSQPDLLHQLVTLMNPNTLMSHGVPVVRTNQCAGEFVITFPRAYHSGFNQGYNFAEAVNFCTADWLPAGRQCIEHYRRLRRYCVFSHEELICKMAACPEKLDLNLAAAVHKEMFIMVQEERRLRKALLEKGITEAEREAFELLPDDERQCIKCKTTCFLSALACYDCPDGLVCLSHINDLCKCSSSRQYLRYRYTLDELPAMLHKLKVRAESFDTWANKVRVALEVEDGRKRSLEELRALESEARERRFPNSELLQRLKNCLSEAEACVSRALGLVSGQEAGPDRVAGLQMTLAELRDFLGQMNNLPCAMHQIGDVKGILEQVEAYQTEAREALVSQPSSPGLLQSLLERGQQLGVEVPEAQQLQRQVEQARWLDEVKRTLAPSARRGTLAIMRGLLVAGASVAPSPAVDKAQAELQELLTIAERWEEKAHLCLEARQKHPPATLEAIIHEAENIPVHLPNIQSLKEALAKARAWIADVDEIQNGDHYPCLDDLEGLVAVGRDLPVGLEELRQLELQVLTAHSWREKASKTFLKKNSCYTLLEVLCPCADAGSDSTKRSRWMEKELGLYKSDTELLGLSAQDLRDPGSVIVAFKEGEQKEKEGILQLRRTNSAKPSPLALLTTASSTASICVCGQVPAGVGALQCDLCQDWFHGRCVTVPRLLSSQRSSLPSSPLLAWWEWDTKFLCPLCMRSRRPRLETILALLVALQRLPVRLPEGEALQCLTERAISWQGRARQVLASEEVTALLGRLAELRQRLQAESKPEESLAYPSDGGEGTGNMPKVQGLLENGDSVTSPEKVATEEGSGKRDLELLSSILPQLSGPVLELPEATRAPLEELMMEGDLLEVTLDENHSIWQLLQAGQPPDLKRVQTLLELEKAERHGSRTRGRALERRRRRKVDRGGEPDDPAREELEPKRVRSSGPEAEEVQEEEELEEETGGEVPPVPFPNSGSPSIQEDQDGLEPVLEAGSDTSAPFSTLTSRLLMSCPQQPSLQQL
# UniProt P48193, whole entry: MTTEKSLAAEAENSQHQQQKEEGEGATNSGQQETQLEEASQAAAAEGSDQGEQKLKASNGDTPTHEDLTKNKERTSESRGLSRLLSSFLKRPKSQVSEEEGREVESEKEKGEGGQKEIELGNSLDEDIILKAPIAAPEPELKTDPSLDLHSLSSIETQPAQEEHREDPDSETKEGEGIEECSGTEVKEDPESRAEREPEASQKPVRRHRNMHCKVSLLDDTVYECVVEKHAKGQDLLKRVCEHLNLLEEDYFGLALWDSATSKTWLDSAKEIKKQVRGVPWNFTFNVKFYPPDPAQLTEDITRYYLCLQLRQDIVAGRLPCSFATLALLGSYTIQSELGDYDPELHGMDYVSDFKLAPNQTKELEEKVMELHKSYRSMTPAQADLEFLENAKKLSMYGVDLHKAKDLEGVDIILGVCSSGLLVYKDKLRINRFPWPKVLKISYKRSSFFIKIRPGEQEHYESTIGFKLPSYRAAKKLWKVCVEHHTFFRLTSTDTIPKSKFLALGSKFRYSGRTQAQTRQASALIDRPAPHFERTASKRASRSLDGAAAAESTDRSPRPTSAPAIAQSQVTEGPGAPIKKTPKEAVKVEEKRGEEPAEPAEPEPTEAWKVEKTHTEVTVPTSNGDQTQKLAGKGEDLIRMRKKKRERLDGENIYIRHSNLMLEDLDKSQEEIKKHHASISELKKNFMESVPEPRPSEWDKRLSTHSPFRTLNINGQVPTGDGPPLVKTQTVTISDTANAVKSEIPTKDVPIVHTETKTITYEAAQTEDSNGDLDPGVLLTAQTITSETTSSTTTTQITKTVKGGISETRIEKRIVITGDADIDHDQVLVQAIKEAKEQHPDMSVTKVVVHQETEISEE
# UniProt P43406, whole entry: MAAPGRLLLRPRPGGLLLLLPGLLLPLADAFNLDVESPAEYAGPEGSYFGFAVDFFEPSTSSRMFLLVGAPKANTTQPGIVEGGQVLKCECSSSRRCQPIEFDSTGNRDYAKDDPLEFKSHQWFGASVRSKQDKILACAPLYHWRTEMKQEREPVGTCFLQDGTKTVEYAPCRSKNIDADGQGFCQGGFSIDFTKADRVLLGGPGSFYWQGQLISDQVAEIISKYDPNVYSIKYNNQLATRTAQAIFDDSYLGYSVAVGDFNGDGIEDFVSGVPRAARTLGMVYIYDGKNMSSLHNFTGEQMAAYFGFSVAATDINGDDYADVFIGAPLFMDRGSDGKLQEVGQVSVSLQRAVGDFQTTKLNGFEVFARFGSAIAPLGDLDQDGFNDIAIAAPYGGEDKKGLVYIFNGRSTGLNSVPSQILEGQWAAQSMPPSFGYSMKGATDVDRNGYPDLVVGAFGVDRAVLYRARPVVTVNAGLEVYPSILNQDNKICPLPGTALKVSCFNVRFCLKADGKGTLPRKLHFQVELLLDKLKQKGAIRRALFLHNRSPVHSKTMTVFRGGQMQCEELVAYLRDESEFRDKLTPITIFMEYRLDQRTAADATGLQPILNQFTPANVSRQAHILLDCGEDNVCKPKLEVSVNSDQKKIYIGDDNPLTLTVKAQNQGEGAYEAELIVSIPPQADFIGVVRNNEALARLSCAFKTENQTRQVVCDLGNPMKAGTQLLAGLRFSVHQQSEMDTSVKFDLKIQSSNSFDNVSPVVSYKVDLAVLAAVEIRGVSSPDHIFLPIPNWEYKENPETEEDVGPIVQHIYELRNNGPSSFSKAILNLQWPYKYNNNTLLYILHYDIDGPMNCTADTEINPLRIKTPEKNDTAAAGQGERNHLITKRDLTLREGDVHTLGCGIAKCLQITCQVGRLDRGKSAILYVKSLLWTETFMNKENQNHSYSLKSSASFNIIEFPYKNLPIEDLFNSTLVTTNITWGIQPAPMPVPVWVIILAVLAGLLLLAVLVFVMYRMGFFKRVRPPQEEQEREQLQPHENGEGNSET
# UniProt P37804: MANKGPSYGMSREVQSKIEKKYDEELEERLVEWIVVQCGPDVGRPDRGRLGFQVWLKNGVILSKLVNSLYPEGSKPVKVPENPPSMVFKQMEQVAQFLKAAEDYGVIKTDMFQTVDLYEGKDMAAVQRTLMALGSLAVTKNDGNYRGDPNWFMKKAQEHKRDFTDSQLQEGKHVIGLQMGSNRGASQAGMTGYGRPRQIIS
# UniProt P46412, whole entry: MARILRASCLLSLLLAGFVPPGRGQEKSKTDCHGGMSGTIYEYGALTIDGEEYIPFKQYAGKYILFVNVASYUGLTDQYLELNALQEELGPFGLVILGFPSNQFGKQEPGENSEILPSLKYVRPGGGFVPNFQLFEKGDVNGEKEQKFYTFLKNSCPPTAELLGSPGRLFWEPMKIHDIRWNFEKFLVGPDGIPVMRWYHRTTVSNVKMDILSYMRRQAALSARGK
# UniProt P46414, whole entry: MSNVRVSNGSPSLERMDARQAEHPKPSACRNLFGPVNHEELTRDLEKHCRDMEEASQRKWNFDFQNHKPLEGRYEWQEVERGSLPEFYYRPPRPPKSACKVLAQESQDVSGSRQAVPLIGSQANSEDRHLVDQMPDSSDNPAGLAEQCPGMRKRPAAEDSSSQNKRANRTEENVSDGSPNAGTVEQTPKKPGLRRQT
# Compound: CN[C@@H]1C[C@H]2O[C@@](C)([C@@H]1OC)n1c3ccccc3c3c4c(c5c6ccccc6n2c5c31)C(=O)NC4 [staurosporine]
# Assay: log2 fold change of tryptic peptide abundance, ligand vs vehicle (limited proteolysis) (log2 ratio); higher = more trypsin-susceptible (destabilized)
# Settings: ligand concentration: 20 uM; sample: mouse liver crude lysate; replicate design: treated separately
row,Target,log2 fold change
1,"UniProt P50608 (peptide sequence: SAMPVDAPLCLR, peptide start residue: 358)",0.15
2,"UniProt P42703 (peptide sequence: SLEPHHSDIK, peptide start residue: 770)",-0.297
3,"UniProt P41230 (peptide sequence: DLPVGLEELR, peptide start residue: 1060)",0.209
4,"UniProt P48193 (peptide sequence: NFMESVPEPRPSEWDKR, peptide start residue: 685)",0.373
5,"UniProt P43406 (peptide sequence: ILACAPLYHWR, peptide start residue: 135)",-0.205
6,"UniProt P37804 (peptide sequence: DFTDSQLQEGK, peptide start residue: 162)",0.0998
7,"UniProt P46412 (peptide sequence: GDVNGEKEQK, peptide start residue: 138)",-0.641
8,"UniProt P46414 (peptide sequence: GSLPEFYYRPPRPPK, peptide start residue: 82)",-0.104

# A section of the results above, for reference:
row,Target,log2 fold change
7,"UniProt P46412 (peptide sequence: GDVNGEKEQK, peptide start residue: 138)",-0.641
8,"UniProt P46414 (peptide sequence: GSLPEFYYRPPRPPK, peptide start residue: 82)",-0.104

# Source: the supplement of paper PMC12819154, “High-throughput peptide-centric local stability assay extends protein–ligand identification to membrane proteins, tissues and bacteria” (Nature Structural & Molecular Biology, 2025)
